PubChem BioAssay AID1671195, Yale University | 2021
The whole screen tested about 22,000 reagents; shown is an unselected part. Over the whole deposit, about 1,510 (6.9%) were called active. 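Active includes knockdowns raising or lowering LDL uptake; positive z-scores mean more uptake, negative mean less.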 Unmarked entries are inactive.

Aim: 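Regulators of LDL receptor activity judged by labelled LDL uptake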 (primary screen)
Cell system: human Huh7 hepatoma cells
Knock-down reagent: siRNA pool against human genes, 18 nM
Timing: about 2 to 2.5 days of knockdown, then 8 h LDL uptake
Treatment: DiI-labelled LDL at 30 µg/ml for 8 h, in lipoprotein-deficient serum medium
Detection: 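Per-cell DiI-LDL intensity by automated imaging; well means scaled to the plate median and given as a robust z-score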
Scale: robust z-score: higher = more LDL uptake after knockdown
Hit rule: 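Active when two or more replicates show a robust z-score above 2 or below -2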

KCTD21 (potassium channel tetramerization domain containing 21)
- robust z-score, replicate 1: -0.325
- robust z-score, replicate 2: -0.565
- robust z-score, replicate 3: -0.287

RPL23AP87 (ribosomal protein L23a pseudogene 87)
- robust z-score, replicate 1: -0.00223
- robust z-score, replicate 2: -0.167
- robust z-score, replicate 3: -0.272

ENSA (endosulfine alpha)
- robust z-score, replicate 1: 0.986
- robust z-score, replicate 2: 1.77
- robust z-score, replicate 3: 1.75

TBP (TATA-box binding protein)
- robust z-score, replicate 1: -0.0789
- robust z-score, replicate 2: -1.45
- robust z-score, replicate 3: 0.131

DEPP1 (DEPP autophagy regulator 1)
- robust z-score, replicate 1: 1.4
- robust z-score, replicate 2: 0.92
- robust z-score, replicate 3: 0.679

SYT14 (synaptotagmin 14)
- robust z-score, replicate 1: 1.16
- robust z-score, replicate 2: 1.04
- robust z-score, replicate 3: 1.29

CXCL13 (C-X-C motif chemokine ligand 13)
- robust z-score, replicate 1: 0.938
- robust z-score, replicate 2: 1.14
- robust z-score, replicate 3: 0.0866

CCDC181 (coiled-coil domain containing 181)
- robust z-score, replicate 1: 1.6
- robust z-score, replicate 2: 1.33
- robust z-score, replicate 3: 1.53

GJD2 (gap junction protein delta 2)
- robust z-score, replicate 1: 0.0954
- robust z-score, replicate 2: -0.365
- robust z-score, replicate 3: -0.292

Ordered by “robust z-score, replicate 2” (low to high): some entries from above.
CXCL13 (C-X-C motif chemokine ligand 13)
- robust z-score, replicate 1: 0.938
- robust z-score, replicate 2: 1.14
- robust z-score, replicate 3: 0.0866

CCDC181 (coiled-coil domain containing 181)
- robust z-score, replicate 1: 1.6
- robust z-score, replicate 2: 1.33
- robust z-score, replicate 3: 1.53

Next records follow.
RING1 (ring finger protein 1)
- robust z-score, replicate 1: -1.08
- robust z-score, replicate 2: -0.683
- robust z-score, replicate 3: -0.793

BAIAP2-DT (BAIAP2 divergent transcript)
- robust z-score, replicate 1: -2
- robust z-score, replicate 2: -1.59
- robust z-score, replicate 3: -1.8

CYP27B1 (cytochrome P450 family 27 subfamily B member 1)
- robust z-score, replicate 1: 2.71 (active)
- robust z-score, replicate 2: 2.3
- robust z-score, replicate 3: 1.32

FRRS1 (ferric chelate reductase 1)
- robust z-score, replicate 1: -2.01 (active)
- robust z-score, replicate 2: -1.97
- robust z-score, replicate 3: -2.37

EP300 (EP300 lysine acetyltransferase)
- robust z-score, replicate 1: 2.54 (active)
- robust z-score, replicate 2: 1.93
- robust z-score, replicate 3: 2.76

STXBP1 (syntaxin binding protein 1)
- robust z-score, replicate 1: 0.963 (active)
- robust z-score, replicate 2: 2.59
- robust z-score, replicate 3: 3.35

TFF2 (trefoil factor 2)
- robust z-score, replicate 1: 0.792
- robust z-score, replicate 2: 1.23
- robust z-score, replicate 3: 1.56

CALML6 (calmodulin like 6)
- robust z-score, replicate 1: -0.748
- robust z-score, replicate 2: -0.634
- robust z-score, replicate 3: -0.32

LOC441370 (retired record)
- robust z-score, replicate 1: 2.41
- robust z-score, replicate 2: 1.18
- robust z-score, replicate 3: 0.661

SERP2
- robust z-score, replicate 1: 0.436
- robust z-score, replicate 2: 0.537
- robust z-score, replicate 3: 0.887

FRY (FRY microtubule binding protein)
- robust z-score, replicate 1: 1.33
- robust z-score, replicate 2: 1.61
- robust z-score, replicate 3: 1.19

PCYOX1 (prenylcysteine oxidase 1)
- robust z-score, replicate 1: 1.51
- robust z-score, replicate 2: 1.46
- robust z-score, replicate 3: -1.5

CEND1 (cell cycle exit and neuronal differentiation 1)
- robust z-score, replicate 1: 2.77 (active)
- robust z-score, replicate 2: 3.72
- robust z-score, replicate 3: 2.23

SIGLEC11 (sialic acid binding Ig like lectin 11)
- robust z-score, replicate 1: -0.26
- robust z-score, replicate 2: 0.0722
- robust z-score, replicate 3: -0.0326

GDF10 (growth differentiation factor 10)
- robust z-score, replicate 1: 0.754
- robust z-score, replicate 2: 0.67
- robust z-score, replicate 3: 1.01
